Laboratory results: PubChem BioAssay AID1259424 (University of Nebraska Medical Center, 2018)

- Aim: 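Find knockdowns that reproduce the expression shifts seen after KSR1 loss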 (primary screen)
- Cells: human HCT116 colon cancer cells
- Reagent: siRNA pool against human genes, 50 nM
- Measurement: 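Log2 levels of six mRNAs (branched-DNA multiplex), adjusted by two reference genes and the non-targeting median, then scored against the average KSR1 knockdown pattern as Pearson r and euclidean distance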
- Direction: mean correlation with KSR1 profile and KSR1 correlation: higher = expression change more like KSR1 knockdown; mean distance from KSR1 profile: higher = expression change less like KSR1 knockdown
In all, the deposit lists about 14,000 reagents; this is a part drawn at random. 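Higher correlation or smaller distance means closer resemblance to KSR1 loss; control wells, including KSR1 knockdowns, recur on many plates.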 The record does not give: the time to read-out.

| gene | mean correlation with KSR1 profile | mean distance from KSR1 profile | KSR1 correlation, replicate 1 | KSR1 correlation, replicate 2 | KSR1 correlation, replicate 3 |
| --- | --- | --- | --- | --- | --- |
| CIDEA | 0.0107 | 2.49 | 0.204 | -0.0325 | 0.0827 |
| HOXC4 | -0.3 | 2.8 | -0.135 | -0.349 | 0.177 |
| KCNH7 | 0.594 | 1.55 | 0.706 | 0.41 | 0.53 |
| CXCL3 | 0.799 | 1.17 | 0.811 | 0.884 | 0.599 |
| THBS3 | 0.17 | 2.87 | 0.307 | 0.127 | 0.0464 |
| TCF7L2 | 0.844 | 1.25 | 0.896 | 0.828 | 0.711 |
| HESX1 | 0.307 | 2.57 | 0.37 | 0.562 | 0.15 |
| NR1H4 | -0.741 | 1.77 | -0.56 | -0.683 | -0.508 |
| CROT | 0.169 | 2.95 | 0.113 | 0.313 | 0.223 |
| ZFYVE21 | 0.786 | 1.61 | 0.719 | 0.514 | 0.921 |
| RAI14 | 0.298 | 2.36 | 0.449 | 0.127 | 0.441 |
| SELENOP | 0.907 | 1.3 | 0.751 | 0.828 | 0.847 |
| HMGXB3 | 0.25 | 1.52 | 0.478 | -0.274 | 0.443 |
| LRRC2 | 0.122 | 2.57 | 0.18 | 0.161 | 0.118 |
| NME2 | 0.404 | 1.53 | 0.452 | 0.679 | 0.262 |
| B3GALNT2 | -0.321 | 2.36 | -0.418 | -0.286 | -0.287 |
| PGLS | 0.363 | 1.19 | 0.578 | 0.308 | -0.0645 |
| LBR | -0.113 | 1.46 | -0.208 | -0.151 | 0.00925 |
| MANBAL | -0.463 | 2.65 | -0.344 | -0.504 | -0.284 |
| SH3BGR | 0.192 | 3.86 | 0.185 | 0.204 | 0.0836 |
| BPHL | 0.0813 | 2.21 | -0.109 | 0.392 | 0.0816 |
| ELF3 | 0.352 | 2.03 | 0.54 | 0.545 | 0.037 |
| ADPRHL1 | -0.0875 | 2.67 | -0.163 | 0.289 | -0.043 |
| VTI1B | -0.675 | 3.58 | -0.601 | -0.702 | -0.685 |
| SCAP | -0.164 | 2.2 | -0.254 | -0.207 | -0.148 |
| PTX3 | -0.187 | 1.36 | -0.0896 | -0.25 | -0.201 |
| TAX1BP1 | 0.789 | 1.76 | 0.728 | 0.762 | 0.733 |
| RBM15 | 0.295 | 1.83 | 0.228 | -0.143 | 0.251 |
| GPR27 | -0.686 | 3.32 | -0.802 | -0.418 | 0.705 |
| KIF7 | -0.544 | 2.56 | -0.545 | -0.671 | -0.637 |
| NECTIN2 | -0.0307 | 2.11 | 0.0315 | -0.0347 | -0.211 |
| FOXP1 | 0.38 | 3.08 | 0.375 | 0.395 | 0.375 |
| ATAD3A | -0.0752 | 3.32 | -0.0476 | -0.301 | -0.1 |
| STX6 | 0.188 | 3.29 | 0.175 | 0.409 | -0.0412 |
| COX6C | 0.406 | 1.79 | 0.452 | 0.401 | 0.354 |
| FBXO34 | -0.607 | 6.67 | -0.209 | -0.506 | -0.342 |
| TJP1 | -0.671 | 2.66 | -0.652 | -0.539 | -0.831 |
| COPRS | -0.61 | 1.7 | -0.222 | -0.639 | -0.741 |
| NFKBIL1 | -0.43 | 3.45 | -0.492 | -0.345 | -0.546 |
| SAP18 | -0.182 | 2.26 | 0.448 | 0.105 | -0.548 |
| TNNI3 | -0.25 | 1.94 | -0.255 | -0.581 | 0.0653 |
| ENTPD1 | -0.09 | 3.16 | -0.119 | -0.141 | -0.0271 |
| ATP6V1H | -0.41 | 1.88 | -0.426 | -0.318 | -0.497 |
| INTS9 | -0.666 | 2.6 | -0.674 | -0.611 | -0.46 |
| GKAP1 | -0.21 | 1.97 | 0.0308 | -0.312 | -0.458 |
| CLPTM1 | 0.332 | 0.882 | 0.331 | 0.233 | 0.241 |
| NBPF14 | -0.499 | 1.83 | -0.37 | -0.616 | -0.404 |
| CSN3 | -0.353 | 2.64 | -0.248 | -0.399 | -0.512 |
| LDLRAD4 | -0.245 | 2.71 | -0.209 | -0.163 | -0.484 |
| NOS1 | 0.702 | 0.913 | 0.664 | 0.407 | 0.788 |

6 entries already listed, ordered by “mean distance from KSR1 profile”, ascending:
| gene | mean correlation with KSR1 profile | mean distance from KSR1 profile | KSR1 correlation, replicate 1 | KSR1 correlation, replicate 2 | KSR1 correlation, replicate 3 |
| --- | --- | --- | --- | --- | --- |
| SELENOP | 0.907 | 1.3 | 0.751 | 0.828 | 0.847 |
| HMGXB3 | 0.25 | 1.52 | 0.478 | -0.274 | 0.443 |
| ZFYVE21 | 0.786 | 1.61 | 0.719 | 0.514 | 0.921 |
| RAI14 | 0.298 | 2.36 | 0.449 | 0.127 | 0.441 |
| LRRC2 | 0.122 | 2.57 | 0.18 | 0.161 | 0.118 |
| CROT | 0.169 | 2.95 | 0.113 | 0.313 | 0.223 |
